The list shows only some results of the screen, not a fair sample: it gathers tests that were run many times, whatever their T/C, doses with no T/C, and many T/C values between a quarter and a half above the control. Further doses and runs are listed elsewhere. T/C is the treated group as % of the vehicle group. Some doses have a count of surviving animals in place of a T/C: the source files T/C as zero there, which appears to mark a toxic dose or a test without result, not a measured value. Some doses without a T/C left all or most animals alive at the check, yet need not have been tolerated: survival well below the control is almost never listed, so the zero probably covers shortened survival too. Survivors were counted at the toxicity check, usually on the fifth day, unless a day is given; later deaths do not show. Schedules are NCI's codes, taken here to give the interval after Q, in days (D) or hours (H), and the number of doses after X. Some entries were tested several times; the values are given in rising order. Some schedules carry Z or #; the key to these is not given. Marks such as (2×) say how often a value occurs here. Where survival is the endpoint, this PubChem deposit counts one and a half times the control or more as active, and values a quarter to a half above the control carry no call in these data; other NCI protocols may use other cut-offs. Some T/C values are followed by the survivors on the day toxicity was checked, most often the fifth; without a count, all were alive then.
Tested on: P388 leukemia ip, CD2F1 mice, survival T/C
Experiment: NCI In Vivo Anticancer Drug Screen. Data for tumor model P388 Leukemia (intraperitoneal) in CD2F1 (CDF1) mice
Conditions: T/C endpoint: median survival time, higher T/C = longer survival
[1] = dose: 100.0 mg/kg/injection, schedule: Q04DX003 (ip), vehicle: Klucel (hydroxypropylcellulose) (HPC)
[2] = dose: 50.0 mg/kg/injection, schedule: Q01DX009 (ip), vehicle: Klucel (hydroxypropylcellulose) (HPC)
[3] = dose: 100.0 mg/kg/injection, schedule: Q01DX009 (ip), vehicle: Klucel (hydroxypropylcellulose) (HPC)
[4] = dose: 200.0 mg/kg/injection, schedule: Q01DX009 (ip), vehicle: Klucel (hydroxypropylcellulose) (HPC)
[5] = dose: 200.0 mg/kg/injection, schedule: Q04DX003 (ip), vehicle: saline with Tween-80
[6] = dose: 400.0 mg/kg/injection, schedule: Q04DX003 (ip), vehicle: saline with Tween-80
[7] = dose: 200.0 mg/kg/injection, schedule: Q01DX009 (ip), vehicle: saline with Tween-80
[8] = dose: 200.0 mg/kg/injection, schedule: Q01DX009 (ip), vehicle: saline
[9] = dose: 25.0 mg/kg/injection, schedule: Q01DX009 (ip), vehicle: Klucel (hydroxypropylcellulose) (HPC)
[10] = dose: 100.0 mg/kg/injection, schedule: Q01DX005 (ip), vehicle: saline with Tween-80
[11] = dose: 200.0 mg/kg/injection, schedule: Q01DX005 (ip), vehicle: saline with Tween-80

O=S(=O)(ON=C1C=CC(=NOS(=O)(=O)c2ccccc2)C=C1)c1ccccc1
survivor count (dose: 25.0 mg/kg/injection, schedule: Q04DX003 (ip), vehicle: Klucel (hydroxypropylcellulose) (HPC)): 6 of 6
T/C [1]: 125 % of control
survivor count [1]: 6 of 6
survivor count (dose: 200.0 mg/kg/injection, schedule: Q04DX003 (ip), vehicle: Klucel (hydroxypropylcellulose) (HPC)): 6 of 6

O=S1(=O)Cc2ccccc21
survivor count (dose: 400.0 mg/kg/injection, schedule: Q01DX001 (ip), vehicle: Klucel (hydroxypropylcellulose) (HPC)): 0 of 6

O=C[C@@H](CO)O[C@H](C=O)n1cnc2c(=O)[nH]cnc21
T/C (dose: 20.0 mg/kg/injection, schedule: Q01DX009 (ip), vehicle: saline): 125 and 128 % of control
T/C (dose: 40.0 mg/kg/injection, schedule: Q01DX009 (ip), vehicle: saline): 137, 145, 149 % of control
T/C (dose: 54.0 mg/kg/injection, schedule: Q01DX005 (ip), vehicle: saline): 127 % of control
T/C (dose: 80.0 mg/kg/injection, schedule: Q01DX009 (ip), vehicle: saline): 149 % of control
T/C (dose: 90.0 mg/kg/injection, schedule: Q01DX005 (ip), vehicle: saline): 145 % of control [6 of 7 alive]
survivor count (dose: 320.0 mg/kg/injection, schedule: Q01DX009 (ip), vehicle: saline): 5 of 6

C=C(C)C(=O)NC(N)=NC#N
survivor count (dose: 120.0 mg/kg/injection, schedule: Q01DX005 (ip), vehicle: Klucel (hydroxypropylcellulose) (HPC)): 3 of 6

COc1ccc2c(c1)CCC1(C)CC(=O)C=C21 (configuration not stated)
survivor count [2]: 6 of 6
survivor count [3]: 6 of 6
survivor count [4]: 6 of 6

CCC(CC)NCCCNc1cc(OC)cc2cccnc12
survivor count (dose: 50.0 mg/kg/injection, schedule: Q01DX005 (ip), vehicle: saline): 3 of 6
survivor count (dose: 100.0 mg/kg/injection, schedule: Q01DX005 (ip), vehicle: saline): 0 of 6
survivor count (dose: 200.0 mg/kg/injection, schedule: Q01DX005 (ip), vehicle: saline): 0 of 6

CCCCCC(Cn1ccnc1)c1ccccc1Br (configuration not stated)
survivor count [5]: 2 of 6 and 4 of 6
survivor count [6]: 3 of 6

Cc1cc2nc3n(c2cc1C)C(=O)c1cc2ccccc2cc1-3
survivor count (dose: 12.5 mg/kg/injection, schedule: Q01DX009 (ip), vehicle: saline with Tween-80): 6 of 6
survivor count (dose: 50.0 mg/kg/injection, schedule: Q01DX009 (ip), vehicle: saline with Tween-80): 6 of 6
survivor count (dose: 100.0 mg/kg/injection, schedule: Q01DX009 (ip), vehicle: saline with Tween-80): 6 of 6
survivor count [7]: 6 of 6

Cn1ccccc1=O
T/C (dose: 50.0 mg/kg/injection, schedule: Q01DX009 (ip), vehicle: saline): 95, 100, 107, 109, 111 % of control
T/C (dose: 100.0 mg/kg/injection, schedule: Q01DX009 (ip), vehicle: saline): 101, 104, 107 (2×), 117 % of control
T/C [8]: 98 [5 of 6 alive], 109, 111, 128 % of control
survivor count [8]: 6 of 6
survivor count (dose: 400.0 mg/kg/injection, schedule: Q01DX009 (ip), vehicle: saline): 3 of 6, 4 of 6, 6 of 6 (2×)

CC(C)CCC(=O)c1ccoc1
survivor count (dose: 7.5 mg/kg/injection, schedule: Q01DX005 (ip), vehicle: saline with Tween-80): 1 of 6 and 3 of 6
survivor count (dose: 15.0 mg/kg/injection, schedule: Q01DX005 (ip), vehicle: saline with Tween-80): 0 of 6
survivor count (dose: 30.0 mg/kg/injection, schedule: Q01DX005 (ip), vehicle: saline with Tween-80): 0 of 6
survivor count (dose: 60.0 mg/kg/injection, schedule: Q01DX005 (ip), vehicle: saline with Tween-80): 0 of 6
survivor count (dose: 120.0 mg/kg/injection, schedule: Q01DX005 (ip), vehicle: saline with Tween-80): 0 of 6
survivor count (dose: 240.0 mg/kg/injection, schedule: Q01DX005 (ip), vehicle: saline with Tween-80): 0 of 6

CCn1c(=O)c2ncnnc2n(CC)c1=O
survivor count [9]: 4 of 6
survivor count [2]: 1 of 6
survivor count [3]: 2 of 6
survivor count [4]: 0 of 6

COc1ccc2nc3cc(Cl)ccc3c(NCCCNCCCCNCCCNc3c4ccc(Cl)cc4nc4ccc(OC)cc34)c2c1
T/C (dose: 5.0 mg/kg/injection, schedule: Q01DX009 (ip), vehicle: other): 141 % of control
survivor count (dose: 10.0 mg/kg/injection, schedule: Q01DX009 (ip), vehicle: other): 5 of 6
survivor count (dose: 20.0 mg/kg/injection, schedule: Q01DX009 (ip), vehicle: other): 2 of 6

CCCCNC1=CC(=O)c2ccccc2C1=O
survivor count [6]: 5 of 6

[Tl][S][Tl]
survivor count [9]: 6 of 6
survivor count [2]: 6 of 6
survivor count [3]: 5 of 6
survivor count [4]: 6 of 6

C1=C(c2ccccc2)CC2CCC1N2Cc1ccccc1 (configuration not stated)
survivor count [10]: 1 of 6
survivor count [11]: 0 of 6

CC(=O)c1nc(-c2ccccc2)[nH]c1C
survivor count [6]: 2 of 6

CSC(=S)N/N=C(\C)Cc1ccccn1
survivor count [10]: 0 of 6
survivor count [11]: 0 of 6

Cc1cc2c(c3c1c(=O)c1ccccc1n3C)C=CC(C)(C)O2
survivor count (dose: 50.0 mg/kg/injection, schedule: Q01DX005 (ip), vehicle: saline with Tween-80): 5 of 6
T/C [10]: 127 % of control
T/C [11]: 130 % of control

C#CCOC(=O)Nc1nc2ccc(C)cc2s1
survivor count [2]: 6 of 6
survivor count [3]: 5 of 6
survivor count [4]: 1 of 6

C=C1C(=O)OC2/C=C(\CO)C(OC(C)=O)CC(O)/C(C)=C/C(OC(=O)C(C)CC)C12 (configuration not stated)
T/C [9]: 134 and 140 % of control
T/C [2]: 128 and 141 % of control
T/C [3]: 127 % of control
survivor count [4]: 6 of 6

NNC(=O)c1ccccc1O
survivor count [7]: 5 of 6

CCCCCCC(C)NN (configuration not stated)
survivor count [5]: 0 of 6
survivor count [6]: 0 of 6

CC(C(=O)O)S(=O)(=O)O (configuration not stated)
survivor count (dose: 80.0 mg/kg/injection, schedule: Q01DX009 (ip), vehicle: saline with Tween-80): 0 of 6

N#CC(CCCC(C#N)c1ccccc1)c1ccccc1 (configuration not stated)
survivor count (dose: 200.0 mg/kg/injection, schedule: Q01DX001 (ip), vehicle: Klucel (hydroxypropylcellulose) (HPC)): 3 of 6

CCC(O)(CC(=O)O)c1ccccc1 (configuration not stated)
survivor count (dose: 400.0 mg/kg/injection, schedule: Q01DX009 (ip), vehicle: saline with Tween-80): 0 of 6

CCc1cccc(CC)c1N1C(=O)C(=O)C(C(C)=O)C1=O (configuration not stated)
survivor count [10]: 3 of 6

O=C(O)CC(CC(=O)c1ccccc1)c1ccccc1 (configuration not stated)
T/C [2]: 127 % of control

CCCCOc1cccc2c(NCCCCCCNc3c4ccccc4nc4c(OCCCC)cccc34)c3ccccc3nc12
survivor count (dose: 10.0 mg/kg/injection, schedule: Q## X009 (ip), vehicle: lactic acid): 3 of 6
survivor count (dose: 20.0 mg/kg/injection, schedule: Q## X009 (ip), vehicle: lactic acid): 0 of 5
